# In article PMC5996148:
# Values joined by “and” are separate entries in the source; they are usually repeats but may differ in a detail not shown here. Equal entries are not always repeated. The list shows a part of the results. For some assays here: The exact form of the protein is not confirmed.
# How the values were obtained:
# Assay in all cases: protein microarray (ProtoArray v5.0), streptavidin-Alexa Fluor 647
# Details in all cases: 3'-biotin; 20 mM Tris (pH 7.5), 5 mM MgCl2, 100 mM KCl, 0.1% Tween-20, A/T-rich and random oligonucleotide blockers; temperature not stated; high values mean tight binding
# CD99L2 (human) = system: CD99L2 (human)
# CDADC1 = molecular target: T1, CDADC1 (UniProt Q9BWV3)
# T1 sequence: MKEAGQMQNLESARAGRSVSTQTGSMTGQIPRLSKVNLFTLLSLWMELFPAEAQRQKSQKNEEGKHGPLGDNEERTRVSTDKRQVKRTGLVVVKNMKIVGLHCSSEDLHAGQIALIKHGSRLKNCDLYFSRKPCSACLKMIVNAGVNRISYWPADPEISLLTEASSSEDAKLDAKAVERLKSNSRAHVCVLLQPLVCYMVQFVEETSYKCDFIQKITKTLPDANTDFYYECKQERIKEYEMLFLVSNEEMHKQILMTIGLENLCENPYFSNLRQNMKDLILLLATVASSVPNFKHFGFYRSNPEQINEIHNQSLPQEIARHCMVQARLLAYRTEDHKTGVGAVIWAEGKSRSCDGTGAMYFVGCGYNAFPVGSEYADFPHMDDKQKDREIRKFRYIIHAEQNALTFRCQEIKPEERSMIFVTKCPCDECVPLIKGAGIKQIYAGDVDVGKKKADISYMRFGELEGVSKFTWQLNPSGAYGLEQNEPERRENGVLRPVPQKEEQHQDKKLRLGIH
# CDC123 (human) = system: CDC123 (human)
# CDC23 (human) = system: CDC23 (human)
# CDC2L5 (human) = system: CDC2L5 (human)
# CDC37 (human) = system: CDC37 (human)
# CDC42 (human) = system: CDC42 (human)
# CDCA4 (human) = system: CDCA4 (human)
# CDCA7L (human) = system: CDCA7L (human)
# CDIPT (human) = system: CDIPT (human)
# [1] = system: CDK5 regulatory subunit-associated protein 3 (human)
# CDK6 (human) = system: CDK6 (human)
# CDKN2B (human) = system: CDKN2B (human)
# CDKN2D (human) = system: CDKN2D (human)
# CEACAM6 (human) = system: CEACAM6 (human)
# CEECAM1 (human) = system: CEECAM1 (human)
# CENTB2 (human) = system: CENTB2 (human)
# CENTD2 (human) = system: CENTD2 (human)
# CEP290 (human) = system: CEP290 (human)
# CFHR2 (human) = system: CFHR2 (human)
sequence,measurement,setting,value
GGGAGGCTGAGGCAGG [G4-1 biotinylated (PQS2)],binding signal,CD99L2 (human),-0.312 z-score
same,binding signal,CDADC1,-0.331 z-score
same,binding signal,CDC123 (human),-0.359 z-score
same,binding signal,CDC23 (human),-0.327 z-score
same,binding signal,CDC2L5 (human),-0.3 z-score
same,binding signal,CDC37 (human),-0.339 z-score
same,binding signal,CDC42 (human),-0.334 z-score
same,binding signal,CDCA4 (human),-0.333 z-score and -0.35 z-score
same,binding signal,CDCA7L (human),-0.295 z-score
same,binding signal,CDIPT (human),-0.297 z-score
same,binding signal,[1],-0.379 z-score
same,binding signal,CDK6 (human),-0.346 z-score
same,binding signal,CDKN2B (human),-0.319 z-score
same,binding signal,CDKN2D (human),-0.36 z-score
same,binding signal,CEACAM6 (human),-0.353 z-score
same,binding signal,CEECAM1 (human),-0.283 z-score
same,binding signal,CENTB2 (human),-0.246 z-score
same,binding signal,CENTD2 (human),-0.346 z-score
same,binding signal,CEP290 (human),-0.343 z-score
same,binding signal,CFHR2 (human),-0.286 z-score

# Not a retest: entries from further up.
sequence,measurement,setting,value
GGGAGGCTGAGGCAGG [G4-1 biotinylated (PQS2)],binding signal,CDKN2B (human),-0.319 z-score
same,binding signal,CDKN2D (human),-0.36 z-score
same,binding signal,CEACAM6 (human),-0.353 z-score
same,binding signal,CEECAM1 (human),-0.283 z-score
same,binding signal,CENTB2 (human),-0.246 z-score
same,binding signal,CENTD2 (human),-0.346 z-score
